In PubChem BioAssay AID540276 (National Center for Advancing Translational Sciences (NCATS), 2011):
About 5,400 (1.8%) of roughly 300,000 compounds were called active. The shares of active, inactive and inconclusive entries below differ from those in the screen. Calls come from the whole dose curve; tested in HEK293 cells. Potencies of inconclusive entries are doubtful fits and often do not repeat.

Experiment: qHTS for inhibitors of binding or entry into cells for Marburg Virus
Conditions: Marburg virus pseudotyped entry inhibition, cell reporter; activity change, negative = inhibition: at 37.8 µM (top of the series) unless noted
% is set by controls: 0 for no effect and ±100 for the full control effect; potency is the fitted concentration of half-maximal effect.

Row | Compound | activity change, negative = inhibition | Potency
1 | CCOC(=O)N1CCN(S(=O)(=O)c2ccc(C(=O)Nc3nnc(CC)o3)cc2)CC1 | inactive: 3.41% | –
2 | O=c1cc(-c2cccc(F)c2)[nH]c2ccccc12 | – | inconclusive: 1.84 µM [inhibitor, full curve, poor fit]
3 | COc1ccc(-c2csc3ncnc(N4CCN(S(=O)(=O)c5cccc(F)c5)CC4)c23)cc1 | – | inconclusive: 35.5 µM [inhibitor, single point]
4 | CC(C)CC(=O)Nc1cc([N+](=O)[O-])ccc1Cl | inactive: 0.0115% | –
5 | COc1ccc(C(=O)c2c(C(F)(F)F)oc3c2C(=O)c2ccccc2C3=O)cc1OC | – | active: 2.82 µM
6 | CC(C)OP(=O)(OC(C)C)C(Nc1ccccc1)c1cccc([N+](=O)[O-])c1 (centres undefined) | – | inconclusive: 10 µM [inhibitor, partial curve, poor fit]
7 | Cc1oc(C(C)(C)C)cc1C(=O)Nc1ccc2c(c1)OCCO2 | inactive: -11.7% | –
8 | CC(C)NS(=O)(=O)c1ccc(NC(=O)C(C)Oc2ccc(C(=O)c3ccccc3)cc2)cc1 (centres undefined) | – | inconclusive: 3.66 µM [inhibitor, partial curve, poor fit]
9 | CC(=O)CCc1oc2ccccc2c1-c1ccccc1 | – | inconclusive: 0.112 µM [inhibitor, full curve, poor fit]
10 | c1ccc2oc(-c3csc(N4CCOCC4)n3)cc2c1 | – | active: 7.94 µM
11 | COc1ccc(CCNC(=O)NC23CC4CC(CC(C4)C2)C3)cc1 | inactive: -24.3% | –
12 | CC1CC(=O)Nc2ccccc2N1S(=O)(=O)c1ccc(C#N)cc1 (centres undefined) | – | inconclusive: 2.82 µM [inhibitor, single point]
13 | CC(Oc1ccccc1)C(=O)N/N=C/c1ccccn1 (centres undefined) | inactive: 11.3% | –
14 | O=C(CSc1ncn(-c2ccccc2)n1)Nc1ccc2c(c1)OCCO2 | inactive: -9.27% | –
15 | CC(=O)Nc1ccc(NC(=S)NC(=O)C2CC2)cc1 | inactive: 5.35% | –
16 | Cc1ccccc1C(=O)NC(=S)Nc1cccc(NC(=O)C(C)C)c1 | inactive: -8.49% [at 46.1 µM] | –
17 | CCOC(=O)c1c(NC(=O)c2c(Br)cnn2C)c(C#N)nn1-c1ccccc1 | – | inconclusive: 29.1 µM [inhibitor, partial curve, poor fit]
18 | NNC(=O)CNC(c1ccccc1)c1cc(Br)ccc1NC(=O)CCN1CCOCC1 (centres undefined) | – | inconclusive: 3.16 µM [activator, single point]
19 | Cc1ccc(C(=O)OCCOc2cccc(Cl)c2)cc1S(=O)(=O)N1CCOCC1 | – | inconclusive: 25.1 µM [inhibitor, single point]
20 | COc1ccc(OC)c(S(=O)(=O)N2CCC(C(=O)Nc3cc(C)ccc3C)CC2)c1 | – | inconclusive: 6.51 µM [inhibitor, full curve, poor fit]
21 | CCCCCCCCCCSc1n[nH]c(N)n1 | – | inconclusive: 11.2 µM [inhibitor, partial curve, poor fit]
22 | CN(C)CCNc1cc(-c2ccncc2)nc2ccccc12 | – | active: 6.31 µM
23 | O=C(CCN1CCOCC1)N1CCc2c([nH]c3ccccc23)C1c1cccc(Cl)c1 (centres undefined) | – | inconclusive: 1.26 µM [inhibitor, single point]

Row | Compound | activity change, negative = inhibition | Potency
24 | COc1cc2nc(Nc3ccc(C)c(C)c3)nc(N)c2cc1OC | – | inconclusive: 12.6 µM [inhibitor, partial curve, poor fit]
25 | O=c1c2ccccc2nc(/C=C/c2ccc(F)cc2)n1-c1ccccc1O | – | inconclusive: 0.891 µM [inhibitor, full curve, poor fit]
26 | COc1cccc(C2=NOC(C(=O)Nc3ccc(C(C)=O)cc3)C2)c1 (centres undefined) | – | inconclusive: 1.3 µM [activator, full curve, poor fit]
27 | Cc1cc([N+](=O)[O-])cc2c1NC(=O)C2(O)N1CCCCCC1 (centres undefined) | inactive: -12.8% | –
28 | Cc1cc(NC(=O)CSc2nc3c(c(=O)n(C)c(=O)n3C)n2C(C)C)no1 | inactive: 0.787% | –
29 | O=C(Nc1ccccc1C(F)(F)F)c1cc(S(=O)(=O)N2CCC3(CC2)OCCO3)ccc1F | inactive: 7.03% | –
30 | Cc1ccc(C(=O)OCc2nnc(-c3ccc(Br)cc3)o2)cc1 | – | inconclusive: 35.5 µM [activator, single point]
31 | CC(=O)c1ccc(N2CCN(C(=O)c3cc(-c4ccc5c(c4)OCO5)nc4ccccc34)CC2)cc1 | – | inconclusive: 10 µM [inhibitor, partial curve, poor fit]
32 | COc1cc2[nH]c(=S)nc(NCCc3ccc(C)cc3)c2cc1OC | inactive: -15.6% | –
33 | COCC=CC1=CC2=CC(=O)C(C)(OC(=O)c3cnc4ccccc4n3)C(=O)C2=CN1C1CC1 (centres undefined) | – | inconclusive: 1.06 µM [activator, full curve, poor fit]
34 | Cc1ccc(Nc2nc3c(S(=O)(=O)c4ccccc4)nnn3c3ccc(Cl)cc23)c(C)c1 | inactive: 12.7% [at 46.1 µM] | –
35 | CCn1c(NC2CCCCC2)nc2ccccc21 | – | inconclusive: 10 µM [inhibitor, partial curve, poor fit]
36 | CCCc1nnc(NC(=O)C2CCN(C(=O)C3CC(=O)N(c4ccc(C)cc4)C3)CC2)s1 (centres undefined) | – | inconclusive: 25.1 µM [inhibitor, single point]
37 | CS(=O)(=O)N1CCN(c2ccc(NC(=O)CSc3ccc(Cl)cc3)cc2)CC1 | inactive: -6.25% | –
38 | CCOC(=O)C(=O)NCC(c1cccs1)S(=O)(=O)c1ccc(F)cc1 (centres undefined) | inactive: 21.8% [at 46.1 µM] | –
39 | Cc1nn(C)c(C(=O)NCc2ccc(Cl)cc2)c1Cl | – | inconclusive: 5.17 µM [inhibitor, full curve, poor fit]
40 | CCCCn1c(SCC(=O)OCC)nnc1-c1ccoc1C | inactive: 17% | –
41 | CCc1nnc(NC(=O)COC(=O)CN2C(=O)c3ccccc3C2=O)s1 | – | inconclusive: 35.5 µM [activator, single point]
42 | Cc1cccc(OC(=O)c2nc(SCc3ccccc3F)ncc2Cl)c1 | inactive: -3.94% [at 46.1 µM] | –
43 | Cc1ccnc(NC(=S)NC(=O)c2ccco2)c1 | – | inconclusive: 1.12 µM [activator, single point]
44 | FC(F)(F)C(Oc1nc(Nc2ccc(Cl)cc2)nc(N2CCOCC2)n1)C(F)(F)F | – | inconclusive: 4.47 µM [inhibitor, full curve, poor fit]
45 | CC(=O)c1ccc(NC(=S)NNC(=O)NC2CCCCC2)cc1 | – | inconclusive: 35.5 µM [activator, partial curve, poor fit]
46 | CCOc1ccc(S(=O)(=O)N(CC(=O)N/N=C/c2ccc(-c3ccc([N+](=O)[O-])cc3)o2)c2ccccc2)cc1 | – | inconclusive: 10 µM [inhibitor, partial curve, poor fit]

Row | Compound | activity change, negative = inhibition | Potency
47 | COc1cc(/C=N/NC(=O)COc2cccc(F)c2)ccc1OS(=O)(=O)c1ccc(C)cc1 | – | inconclusive: 12.6 µM [inhibitor, partial curve, poor fit]
48 | Cc1cc(C(=O)Nc2ccccc2C)c2ccccc2n1 | inactive: -0.746% [at 46.1 µM] | –
49 | N=C1C(c2nc3ccccc3[nH]2)=C(O)CN1c1ccc(F)cc1 | inactive: 14.7% | –
50 | Cc1ccc(NC(=O)C2CCCN(c3ncccn3)C2)cc1C (centres undefined) | – | inconclusive: 2.51 µM [activator, full curve, poor fit]
51 | O=c1c2c(nc3c(-c4ccc(Cl)cc4)c[nH]n13)CCC2 | – | inconclusive: 8.91 µM [inhibitor, partial curve]
52 | CSc1cccc(NC(=S)N2CCC(N(C)C3CCCCCC3)CC2)c1 | – | inconclusive: 17.8 µM [inhibitor, partial curve, poor fit]
53 | O=c1c2sccc2n(Cc2cccc(F)c2)c(=O)n1-c1ccc(F)cc1 | – | inconclusive: 5.01 µM [activator, partial curve, poor fit]
54 | Cc1cccc(C(=O)Oc2c(Br)cc(Br)cc2/C=N/NC(=O)c2ccncc2)c1 | – | inconclusive: 14.1 µM [activator, single point]
55 | Cc1ccc(-c2cc(C(=O)N(C)CC(=O)Nc3ccccc3Br)c3ccccc3n2)o1 | – | inconclusive: 35.5 µM [inhibitor, single point]
56 | COc1cc2c(cc1OC)n(CC(=O)Nc1ccccc1)c(=O)n1nc(-c3ccccc3)nc21 | inactive: 17.9% [at 46.1 µM] | –
57 | COc1ccc(CCNC(=O)c2cc(=O)c3c(C)cc(C)cc3o2)cc1OC | – | inconclusive: 35.5 µM [inhibitor, partial curve, poor fit]
58 | Cc1cccc(OCCNc2cc(N3CCOCC3)ccc2[N+](=O)[O-])c1 | – | inconclusive: 29.1 µM [inhibitor, partial curve, poor fit]
59 | O=C(CSCCO)Nc1ccc(C23CC4CC(CC(C4)C2)C3)cc1 | inactive: -3.55% | –
60 | O=C(COC(=O)c1n[nH]c2ccccc12)NCCc1ccccc1 | inactive: 14.7% [at 46.1 µM] | –
61 | Cc1cc(NC(=O)COC(=O)C2CCN(C(=O)c3ccc(Cl)cc3)CC2)no1 | inactive: -23.9% [at 46.1 µM] | –
62 | N#C/C(=C\c1ccccc1[N+](=O)[O-])C(=O)NCc1ccccc1 | inactive: 5.59% [at 46.1 µM] | –
63 | CC1C=C2OC(N)=C(C#N)C3(C(=O)N(CC(=O)O)c4ccccc43)C2C(=O)O1 (centres undefined) | – | inconclusive: 12.6 µM [activator, single point]
64 | CCOC(=O)CNC(=S)SC | inactive: 7.22% [at 46.1 µM] | –
65 | CC1(C)Cc2c(sc(NC(=O)c3ccc4c(c3)OCCO4)c2C(N)=O)C(C)(C)N1 | – | inconclusive: 35.5 µM [inhibitor, single point]
66 | Cn1c(C(=O)N2CCCC(C(=O)N3CCN(c4ccccc4)CC3)C2)cc2sccc21 (centres undefined) | – | inconclusive: 14.1 µM [inhibitor, single point]
67 | O=C1c2cnc3nc(SCc4ccc(Cl)cc4)nn3c2CC2c3ccccc3CCN12 (centres undefined) | – | inconclusive: 29.1 µM [inhibitor, single point]
68 | Cc1ccc(S(=O)(=O)N(C)C)cc1-n1c(SCC(=O)Nc2ccc(F)cc2Cl)nc2ccccc2c1=O | – | inconclusive: 9.2 µM [inhibitor, partial curve]
69 | CCOc1cccc(N2C(=O)CC(N3CCC(C(N)=O)(N4CCCCC4)CC3)C2=O)c1 (centres undefined) | inactive: 17.7% | –

Entries 24 to 28, quoted:
Row | Compound | activity change, negative = inhibition | Potency
24 | COc1cc2nc(Nc3ccc(C)c(C)c3)nc(N)c2cc1OC | – | inconclusive: 12.6 µM [inhibitor, partial curve, poor fit]
25 | O=c1c2ccccc2nc(/C=C/c2ccc(F)cc2)n1-c1ccccc1O | – | inconclusive: 0.891 µM [inhibitor, full curve, poor fit]
26 | COc1cccc(C2=NOC(C(=O)Nc3ccc(C(C)=O)cc3)C2)c1 (centres undefined) | – | inconclusive: 1.3 µM [activator, full curve, poor fit]
27 | Cc1cc([N+](=O)[O-])cc2c1NC(=O)C2(O)N1CCCCCC1 (centres undefined) | inactive: -12.8% | –
28 | Cc1cc(NC(=O)CSc2nc3c(c(=O)n(C)c(=O)n3C)n2C(C)C)no1 | inactive: 0.787% | –
